Measurements reported in PubChem BioAssay AID652259 (Drosophila RNAi Screening Center, 2013).
In all, the deposit lists about 22,000 reagents; shown is an unselected part of those that have a named target and a result. In the full data, 233 (1.1%) got an active call. 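Light values are raw, unnormalised plate reads; the ratio scores behind the reporter calls were not deposited.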 Names joined by + are all predicted targets of the reagent. The record does not give: the amount of reagent, the time to read-out, the dose of the treatment.

Assay: 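Knock-downs that push a Wingless-driven reporter up or down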 (primary screen)
System: Drosophila clone 8 imaginal disc epithelial cells
Reagents: long dsRNA against Drosophila genes
Challenge: pathway stimulated by co-transfected Wingless expression plasmid
Read-out: 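Firefly luciferase from a tcf-site Wingless reporter, measured alongside co-transfected Renilla luciferase that tracks transfection; pathway stimulated by a Wingless plasmid; the firefly-to-Renilla ratio is not deposited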
Scale: firefly reporter light: higher = more Wg reporter light, before normalisation; Renilla control light: higher = more transfected or surviving cells
Hit rule: 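Strong candidates differ from their plate mean by at least two out of four per-plate statistical tests; weak candidates meet just one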
Calls: active = candidate regulator (raises or lowers reporter); inactive = not a candidate

gene	DRSC id	firefly reporter light, replicate 1	firefly reporter light, replicate 2	Renilla control light, replicate 1	Renilla control light, replicate 2	call
CG15814	DRSC19730	2024	9008	961	3367	inactive
scaf (scarface)	DRSC04849	6419		2501		inactive
Tengl4 (Testis EndoG-Like 4)	DRSC15620	18618		4420		inactive
CG8407	DRSC07167	8528		3363		inactive
GABA-B-R1 (metabotropic GABA-B receptor subtype 1)	DRSC22038	3.67e5	3.67e5	1.91e5	1.84e5	inactive
Ifrd1 (Interferon-related developmental regulator 1)	DRSC00415	3569	6664	1370	1509	inactive
Ifrd1 (Interferon-related developmental regulator 1)	DRSC00566	2905	8402	1533	2128	inactive
Pif1 (Pif1 DNA helicase)	DRSC00582	13334		5467		inactive
CG43339	DRSC02466	8272		2717		inactive
grsm (granny smith)	DRSC14165	13878		3450		inactive
grsm (granny smith)	DRSC14843	16096		2898		inactive
CG9297	DRSC16469	6178		3355		inactive
Amnionless	DRSC00317	2592	7849	918	3161	inactive
Hrd3 (HMG-coA reductase degradation 3)	DRSC14156	2756	5512	1222	1549	inactive
CG7564	DRSC10880	9568		4151		inactive
CG17030	DRSC08503	1072	6131	1037	2592	inactive
trsn (translin)	DRSC06078	1561	6887	579	2537	inactive
Vps29 (Vacuolar protein sorting 29)	DRSC00666	7760		3394		inactive
ATPsynbetaL (ATP synthase, beta subunit-like)	DRSC10503	6164		2597		inactive
CG14131	DRSC10135	6024		2673		inactive
AstA-R1 (Allatostatin A receptor 1)	DRSC17278	4930		1447		inactive
AstA-R1 (Allatostatin A receptor 1)	DRSC17727	15906		11696		inactive
CG15800	DRSC04271	2021	8304	647	2288	inactive
Patronin	DRSC06756	5789		2338		inactive
Patronin	DRSC06757	7366		2119		inactive
Patronin	DRSC06994	6065		2488		inactive
cu (curled)	DRSC15643	9932		3668		inactive
cu (curled)	DRSC15648	25003		7971		inactive
CG3436	DRSC00605	7218		2820		inactive
Alg9 (ALG9, alpha-1,2-mannosyltransferase)	DRSC14407	3216	8096	1636	2916	inactive
CG14277	DRSC02380	2272	6227	1052	3296	inactive
Src42A (Src oncogene at 42A)	DRSC04865	13177		3520		inactive
Src42A (Src oncogene at 42A)	DRSC04915	3741	10236	890	3050	inactive
CG10969	DRSC09811	2880		1958		inactive
ATPsynG (ATP synthase, subunit G)	DRSC02928	2362	8312	992	4146	inactive
CG18258	DRSC19798	22240		10342		inactive
CG15369	DRSC18041	16193		7243		inactive
l(1)sc (lethal of scute)	DRSC18789	21750		13408		inactive
Bap111 (Brahma associated protein 111kD)	DRSC18419	2087	6896	793	2292	inactive
PMCA (plasma membrane calcium ATPase)	DRSC17113	1868		1397		inactive
PMCA (plasma membrane calcium ATPase)	DRSC17114	3744		1440		inactive
PMCA (plasma membrane calcium ATPase)	DRSC17154	2524	4636	969	1890	inactive
CG15550	DRSC15088	5041		2202		inactive
CG3640	DRSC04399	2796	9573	1136	3228	inactive
CG3386	DRSC08566	6273		3536		inactive
FAM21 (Family with sequence similarity 21)	DRSC06623	14748		4467		inactive
CG12506	DRSC00347	2820	7744	1280	2992	inactive
CG33631	DRSC12763	4603		1857		inactive
CG34283	DRSC13313	2941		353		inactive
ppk20 (pickpocket 20)	DRSC16260	5602		2388		inactive
CG1092	DRSC12151	9704		4156		inactive
inaF-A	DRSC19660	11072		7720		inactive
CG12147	DRSC12192	10034		1632		inactive
Gr59d (Gustatory receptor 59d)	DRSC22553	6.28e5	6.38e5	2.65e5	2.60e5	inactive
CG15919	DRSC06594	4592		963		inactive
Fak (Focal adhesion kinase)	DRSC07426	6208		2144		inactive
Polr1C (RNA polymerase I and III subunit C)	DRSC02719	8981		4083		inactive
Mmp2 (Matrix metalloproteinase 2)	DRSC06698	3696	9568	1144	4477	inactive
Mmp2 (Matrix metalloproteinase 2)	DRSC22024	7.68e5	7.61e5	3.44e5	3.92e5	inactive
vis + achi	DRSC07277	6489		1901		inactive
TBPH (TAR DNA-binding protein-43 homolog)	DRSC04660	11668		2721		inactive
Ubc4 (Ubiquitin conjugating enzyme 4)	DRSC11312	4637		1725		inactive
nebu (nebulosa)	DRSC09807	2790		816		inactive
nebu (nebulosa)	DRSC09808	5042		3004		inactive
CG30268	DRSC21983	5.42e5	5.60e5	2.29e5	2.90e5	inactive
Ir52b (Ionotropic receptor 52b)	DRSC06263	4752		2097		inactive
yellow-b	DRSC03639	3746		1865		inactive
CG4572	DRSC15603	1669	5297	856	2161	inactive
Nplp4 (Neuropeptide-like precursor 4)	DRSC00391	3591	5940	1744	3305	inactive
CG5758	DRSC02889	2038	7779	617	2016	inactive
CG5758	DRSC02890	1945	5143	840	2160	inactive
spn-E (spindle E)	DRSC17064	19932		4506		inactive
CG14237	DRSC14731	6290		3104		inactive

Ordered by “firefly reporter light, replicate 1” (low to high): 5 of the entries above.
gene	DRSC id	firefly reporter light, replicate 1	firefly reporter light, replicate 2	Renilla control light, replicate 1	Renilla control light, replicate 2	call
Ifrd1 (Interferon-related developmental regulator 1)	DRSC00566	2905	8402	1533	2128	inactive
CG43339	DRSC02466	8272		2717		inactive
Pif1 (Pif1 DNA helicase)	DRSC00582	13334		5467		inactive
grsm (granny smith)	DRSC14165	13878		3450		inactive
grsm (granny smith)	DRSC14843	16096		2898		inactive
